No constants are given. Whether binding was seen depends on the method and setting. In cells and extracts the contact can be indirect. Here binding means that the protein was enriched with, or labelled near, the bait; the list need not be complete. Sequences can lack the tags named with a protein.

The target of this experiment is T1, FpA-tagged ctNup53 (construct P_ACTIN-FpA-NUP53-TGPD) (Chaetomium thermophilum) (UniProt G0S156).
T1 sequence: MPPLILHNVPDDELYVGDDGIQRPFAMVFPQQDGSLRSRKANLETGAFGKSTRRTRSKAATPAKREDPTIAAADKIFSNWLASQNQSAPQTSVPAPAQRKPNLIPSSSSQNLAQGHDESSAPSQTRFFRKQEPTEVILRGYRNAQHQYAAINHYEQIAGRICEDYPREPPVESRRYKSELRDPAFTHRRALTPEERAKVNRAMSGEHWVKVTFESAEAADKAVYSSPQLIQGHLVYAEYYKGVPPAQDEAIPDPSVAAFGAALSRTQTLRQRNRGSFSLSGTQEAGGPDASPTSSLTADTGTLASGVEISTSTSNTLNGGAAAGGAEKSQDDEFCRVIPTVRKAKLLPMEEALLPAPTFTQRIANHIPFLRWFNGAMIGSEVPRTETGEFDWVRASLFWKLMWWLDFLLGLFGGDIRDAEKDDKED
The experiment in a line: affinity purification with mass spectrometry; magnetic-bead affinity capture of FpA-tagged bait from cryo-milled C. thermophilum mycelium in 24-well format under various extraction conditions (Supplementary Table 1); for ctNup53 proteins identified from condition #9; SDS-PAGE, Coomassie.

B1: ctNup49 (protein, UniProt G0S4X2 1-470)
chain: MSLFGTNTTSQTPAGGGLFGTTTSQSAQTGSLFGTATSQPQQTGGLFGSTATQTPSSQLQSTGLFGSTTATSQPQQTGGLFGSTTTTTSQPQQTGGLFGATATSQPQSTGGLFGNTTTTSQPAQTVGLFGTTTQPQPAQSGGLFGSATQQKPATGGLFGSTTTNTGAGLFGNTSNTIGGGGLFGQTAKPATGGLFGQSTTQPQQQQNATPGLTMGQSTNTQQQVVPGVRIDLSNIKSTTRFNDLTEALQQEIAKIDEEIQKCIRDKEAVDAFLPAHGEQLAAIPTDVNFVTRKSEGAHNALSSDILAIDQLRELVKQDADNARLSFKAIDNLKLPMQYHQAGLWSKQMGGAGTAGASGASADADGQSNADLISYFSKTADEMEEMMKKFEKTITEIEAHLTGVEAHAMAMQNVAAQSRNAAQGGVDERVYELAAVLREFEESILKVAGVVGGVKEGVTELQLRDFMGHGS
On to B1, for which the binding result is “binds”.

These data come from paper PMC4750058.
